# Test results reported in the supplement of paper PMC12067093, “Discovery and optimisation of a covalent ligand for TRIM25 and its application to targeted protein ubiquitination” (Chemical Science, 2025).
# Protein sequences, listed by entry. Tags and fused reporters are not part of them. Lines headed by an entry give the natural chain unless they say otherwise; changes in a name come on top.
# UniProt Q14141: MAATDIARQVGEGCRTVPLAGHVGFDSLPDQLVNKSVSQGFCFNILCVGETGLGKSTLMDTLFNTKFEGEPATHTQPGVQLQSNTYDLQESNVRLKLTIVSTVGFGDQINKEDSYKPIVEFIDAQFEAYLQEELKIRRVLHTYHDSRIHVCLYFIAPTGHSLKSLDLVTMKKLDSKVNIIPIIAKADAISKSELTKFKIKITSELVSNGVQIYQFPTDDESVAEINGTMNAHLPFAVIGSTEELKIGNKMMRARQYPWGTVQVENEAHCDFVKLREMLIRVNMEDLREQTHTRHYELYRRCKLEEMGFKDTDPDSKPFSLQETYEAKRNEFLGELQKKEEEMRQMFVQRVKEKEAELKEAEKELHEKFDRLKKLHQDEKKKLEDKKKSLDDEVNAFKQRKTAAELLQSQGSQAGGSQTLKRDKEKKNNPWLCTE
# UniProt P78324, whole entry, looked up: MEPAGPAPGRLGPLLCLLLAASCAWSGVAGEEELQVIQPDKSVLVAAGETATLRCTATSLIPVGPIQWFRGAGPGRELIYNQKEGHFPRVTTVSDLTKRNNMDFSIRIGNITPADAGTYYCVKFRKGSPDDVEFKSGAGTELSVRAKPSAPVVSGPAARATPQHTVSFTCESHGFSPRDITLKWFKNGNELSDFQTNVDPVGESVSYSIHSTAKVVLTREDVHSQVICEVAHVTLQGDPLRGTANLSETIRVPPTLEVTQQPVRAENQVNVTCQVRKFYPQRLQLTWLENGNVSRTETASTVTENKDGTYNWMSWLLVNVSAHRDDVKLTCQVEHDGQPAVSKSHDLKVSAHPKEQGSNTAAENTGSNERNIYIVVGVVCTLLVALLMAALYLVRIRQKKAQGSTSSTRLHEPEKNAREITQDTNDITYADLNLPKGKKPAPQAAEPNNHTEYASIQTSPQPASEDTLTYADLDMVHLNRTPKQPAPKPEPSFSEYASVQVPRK
# UniProt A0MZ66, whole entry, looked up: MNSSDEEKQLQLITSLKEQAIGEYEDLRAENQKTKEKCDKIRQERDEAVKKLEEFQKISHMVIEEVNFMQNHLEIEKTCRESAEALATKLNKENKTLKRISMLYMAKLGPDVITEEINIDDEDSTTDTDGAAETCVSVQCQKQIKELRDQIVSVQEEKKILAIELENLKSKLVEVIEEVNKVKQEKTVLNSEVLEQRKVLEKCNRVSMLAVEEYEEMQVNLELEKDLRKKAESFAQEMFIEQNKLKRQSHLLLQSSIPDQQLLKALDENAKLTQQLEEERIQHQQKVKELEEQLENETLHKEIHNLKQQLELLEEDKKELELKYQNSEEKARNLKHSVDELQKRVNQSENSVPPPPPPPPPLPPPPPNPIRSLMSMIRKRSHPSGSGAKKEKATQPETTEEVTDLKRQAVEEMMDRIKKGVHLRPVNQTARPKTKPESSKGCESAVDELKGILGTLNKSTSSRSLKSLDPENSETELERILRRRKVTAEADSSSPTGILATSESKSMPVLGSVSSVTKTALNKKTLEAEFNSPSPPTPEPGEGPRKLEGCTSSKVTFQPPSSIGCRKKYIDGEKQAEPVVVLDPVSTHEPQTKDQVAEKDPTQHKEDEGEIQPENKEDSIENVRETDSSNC
# UniProt Q9UPS6, whole entry, looked up: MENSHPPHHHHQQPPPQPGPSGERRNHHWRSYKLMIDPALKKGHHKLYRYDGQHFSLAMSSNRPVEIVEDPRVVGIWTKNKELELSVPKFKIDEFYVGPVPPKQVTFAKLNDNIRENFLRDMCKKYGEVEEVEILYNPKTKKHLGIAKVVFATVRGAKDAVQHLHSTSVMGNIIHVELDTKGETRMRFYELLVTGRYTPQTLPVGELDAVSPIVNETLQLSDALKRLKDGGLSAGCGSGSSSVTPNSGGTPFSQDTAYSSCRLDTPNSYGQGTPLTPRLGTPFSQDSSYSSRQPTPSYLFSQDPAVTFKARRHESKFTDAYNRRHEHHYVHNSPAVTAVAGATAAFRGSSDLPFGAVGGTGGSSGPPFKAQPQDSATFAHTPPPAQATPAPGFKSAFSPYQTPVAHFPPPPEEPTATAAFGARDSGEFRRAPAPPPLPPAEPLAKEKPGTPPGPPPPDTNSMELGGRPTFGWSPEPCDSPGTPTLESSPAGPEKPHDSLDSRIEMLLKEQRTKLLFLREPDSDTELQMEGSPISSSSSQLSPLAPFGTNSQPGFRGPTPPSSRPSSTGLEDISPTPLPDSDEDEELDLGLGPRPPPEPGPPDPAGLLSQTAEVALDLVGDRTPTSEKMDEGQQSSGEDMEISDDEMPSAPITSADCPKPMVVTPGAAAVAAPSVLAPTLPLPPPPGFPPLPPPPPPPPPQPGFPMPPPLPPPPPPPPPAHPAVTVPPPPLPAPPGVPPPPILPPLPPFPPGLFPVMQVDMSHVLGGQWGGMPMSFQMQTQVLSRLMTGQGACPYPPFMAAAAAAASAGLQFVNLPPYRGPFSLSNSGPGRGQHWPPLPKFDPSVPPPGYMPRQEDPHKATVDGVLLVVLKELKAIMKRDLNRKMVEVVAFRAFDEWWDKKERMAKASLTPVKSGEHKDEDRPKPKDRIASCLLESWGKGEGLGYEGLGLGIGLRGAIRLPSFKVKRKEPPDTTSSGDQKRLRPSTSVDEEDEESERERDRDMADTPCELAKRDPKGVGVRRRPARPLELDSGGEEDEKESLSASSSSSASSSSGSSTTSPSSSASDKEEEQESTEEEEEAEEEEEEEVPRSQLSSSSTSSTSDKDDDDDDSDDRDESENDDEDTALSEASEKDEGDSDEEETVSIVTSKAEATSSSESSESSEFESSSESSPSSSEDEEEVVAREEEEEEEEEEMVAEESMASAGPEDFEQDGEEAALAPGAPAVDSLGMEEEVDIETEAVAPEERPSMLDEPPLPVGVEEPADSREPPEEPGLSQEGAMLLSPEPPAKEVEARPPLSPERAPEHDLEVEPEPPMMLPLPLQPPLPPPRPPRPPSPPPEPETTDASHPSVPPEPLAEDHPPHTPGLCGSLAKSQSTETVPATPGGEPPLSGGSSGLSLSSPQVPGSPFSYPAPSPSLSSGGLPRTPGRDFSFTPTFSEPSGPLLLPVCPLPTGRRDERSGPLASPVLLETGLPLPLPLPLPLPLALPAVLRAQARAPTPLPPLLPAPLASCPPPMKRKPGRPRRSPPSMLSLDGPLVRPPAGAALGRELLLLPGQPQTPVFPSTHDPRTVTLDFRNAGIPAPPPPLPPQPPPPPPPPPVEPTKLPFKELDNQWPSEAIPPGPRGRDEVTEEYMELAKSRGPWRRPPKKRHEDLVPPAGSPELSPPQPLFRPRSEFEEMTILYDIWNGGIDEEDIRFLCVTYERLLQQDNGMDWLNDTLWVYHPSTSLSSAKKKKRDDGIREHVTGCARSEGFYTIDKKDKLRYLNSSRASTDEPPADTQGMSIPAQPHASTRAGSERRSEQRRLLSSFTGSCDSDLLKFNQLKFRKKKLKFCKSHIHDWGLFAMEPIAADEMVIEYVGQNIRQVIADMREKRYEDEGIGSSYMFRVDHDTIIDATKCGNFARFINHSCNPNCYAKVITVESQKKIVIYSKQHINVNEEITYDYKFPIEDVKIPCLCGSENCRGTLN
# UniProt P05141: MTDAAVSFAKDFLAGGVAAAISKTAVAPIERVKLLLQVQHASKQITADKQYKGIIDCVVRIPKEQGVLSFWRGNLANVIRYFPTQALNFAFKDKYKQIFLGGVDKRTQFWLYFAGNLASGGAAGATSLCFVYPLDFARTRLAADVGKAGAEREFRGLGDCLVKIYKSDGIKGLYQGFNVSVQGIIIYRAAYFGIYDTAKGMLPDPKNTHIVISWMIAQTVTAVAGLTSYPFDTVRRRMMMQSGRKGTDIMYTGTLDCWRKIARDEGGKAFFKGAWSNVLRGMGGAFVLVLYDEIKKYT
# UniProt P50452: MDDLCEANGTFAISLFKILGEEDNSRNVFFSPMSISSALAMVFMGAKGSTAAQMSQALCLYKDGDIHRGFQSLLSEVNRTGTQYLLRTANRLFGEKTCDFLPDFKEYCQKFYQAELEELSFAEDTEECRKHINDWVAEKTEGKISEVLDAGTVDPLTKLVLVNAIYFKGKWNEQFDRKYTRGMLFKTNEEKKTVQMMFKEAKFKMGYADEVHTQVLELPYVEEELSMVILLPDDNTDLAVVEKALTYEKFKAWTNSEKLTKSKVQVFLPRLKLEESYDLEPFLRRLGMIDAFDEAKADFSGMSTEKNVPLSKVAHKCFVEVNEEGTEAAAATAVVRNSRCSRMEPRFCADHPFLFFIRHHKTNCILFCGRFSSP
# UniProt Q8IX90, whole entry, looked up: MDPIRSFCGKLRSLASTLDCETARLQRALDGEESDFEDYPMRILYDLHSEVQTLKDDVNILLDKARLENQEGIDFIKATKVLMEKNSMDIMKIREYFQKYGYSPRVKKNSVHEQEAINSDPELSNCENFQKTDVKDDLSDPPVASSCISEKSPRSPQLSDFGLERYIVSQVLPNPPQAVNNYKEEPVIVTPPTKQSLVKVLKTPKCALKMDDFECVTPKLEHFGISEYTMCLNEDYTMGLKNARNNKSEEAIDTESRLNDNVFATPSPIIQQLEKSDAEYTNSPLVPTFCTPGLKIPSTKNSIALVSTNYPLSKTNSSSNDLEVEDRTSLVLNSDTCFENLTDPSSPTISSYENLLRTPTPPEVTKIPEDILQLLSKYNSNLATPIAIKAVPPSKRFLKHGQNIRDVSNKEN
# UniProt Q15393: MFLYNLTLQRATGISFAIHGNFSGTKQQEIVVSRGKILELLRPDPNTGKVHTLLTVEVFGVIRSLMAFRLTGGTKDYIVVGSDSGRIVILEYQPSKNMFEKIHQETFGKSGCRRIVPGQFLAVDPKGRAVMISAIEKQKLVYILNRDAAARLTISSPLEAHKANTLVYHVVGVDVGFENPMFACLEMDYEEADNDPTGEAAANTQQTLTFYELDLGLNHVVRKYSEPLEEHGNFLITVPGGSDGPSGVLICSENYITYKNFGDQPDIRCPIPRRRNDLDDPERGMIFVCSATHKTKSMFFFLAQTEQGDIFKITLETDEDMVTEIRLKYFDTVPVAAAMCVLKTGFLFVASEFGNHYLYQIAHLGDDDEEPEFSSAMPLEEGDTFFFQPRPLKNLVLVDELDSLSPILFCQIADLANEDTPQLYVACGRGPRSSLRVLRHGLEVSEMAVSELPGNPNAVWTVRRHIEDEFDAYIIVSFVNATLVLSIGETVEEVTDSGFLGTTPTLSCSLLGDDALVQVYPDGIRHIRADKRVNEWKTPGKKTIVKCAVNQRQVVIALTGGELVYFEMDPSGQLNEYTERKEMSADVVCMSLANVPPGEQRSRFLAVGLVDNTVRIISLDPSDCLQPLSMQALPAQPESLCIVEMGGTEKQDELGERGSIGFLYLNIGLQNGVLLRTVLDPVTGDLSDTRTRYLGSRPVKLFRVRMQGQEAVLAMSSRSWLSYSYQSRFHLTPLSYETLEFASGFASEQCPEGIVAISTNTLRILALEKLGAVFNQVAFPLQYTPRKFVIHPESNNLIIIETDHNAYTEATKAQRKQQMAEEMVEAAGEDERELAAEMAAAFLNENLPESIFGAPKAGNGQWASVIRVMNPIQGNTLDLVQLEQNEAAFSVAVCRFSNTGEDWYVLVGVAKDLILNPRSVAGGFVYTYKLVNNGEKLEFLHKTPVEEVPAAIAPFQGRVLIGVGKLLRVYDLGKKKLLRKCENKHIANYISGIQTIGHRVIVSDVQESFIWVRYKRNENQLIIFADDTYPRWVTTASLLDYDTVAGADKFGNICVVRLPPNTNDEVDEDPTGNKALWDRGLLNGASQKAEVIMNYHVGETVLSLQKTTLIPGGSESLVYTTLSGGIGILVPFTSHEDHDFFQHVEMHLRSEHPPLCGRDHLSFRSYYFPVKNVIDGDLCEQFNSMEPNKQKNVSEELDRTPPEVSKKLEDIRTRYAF
# UniProt Q9Y6M5: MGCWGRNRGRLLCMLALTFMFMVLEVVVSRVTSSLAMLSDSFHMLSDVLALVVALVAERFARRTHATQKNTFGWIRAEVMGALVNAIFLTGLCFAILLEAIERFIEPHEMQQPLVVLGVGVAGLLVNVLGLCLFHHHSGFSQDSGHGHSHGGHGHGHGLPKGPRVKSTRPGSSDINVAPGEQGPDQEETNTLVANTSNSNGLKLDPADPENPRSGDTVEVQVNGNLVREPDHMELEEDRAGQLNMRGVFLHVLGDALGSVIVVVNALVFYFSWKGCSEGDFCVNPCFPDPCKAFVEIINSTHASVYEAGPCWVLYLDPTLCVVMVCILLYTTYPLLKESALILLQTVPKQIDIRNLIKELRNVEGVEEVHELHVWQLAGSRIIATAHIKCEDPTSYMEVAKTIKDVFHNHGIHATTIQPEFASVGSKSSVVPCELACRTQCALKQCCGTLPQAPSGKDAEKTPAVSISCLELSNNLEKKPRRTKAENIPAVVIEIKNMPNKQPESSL
# This is one part of the list.
# Compound: Cc1cc(ccc1-c1ccccc1)C(=O)N1CCCN(CC1)C(=O)CCl [compound 10]
# Assay: probe-labelled cysteine peptide fold change vs DMSO (competition) (log2 fold change); higher = less target engagement (more negative = stronger competition)
# Conditions: THP-1, incubation time: 4 h
# 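Also: competitive profiling in live THP-1 cells: cysteine peptides tagged with an iodoacetamide desthiobiotin (IA-DTB) probe, intensity after compound treatment relative to DMSO-treated cells.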
target,measurement,setting,value
SHMT1_P34896_248_IADENGAYLMADMAHISGLVAAGVVPSPFEHCHVVTTTTHK (UniProt P34896),probe-labelled cysteine peptide fold change,10 µM,-0.227
same,probe-labelled cysteine peptide fold change,50 µM,-0.34
SEPT6_Q14141_301_CKLEEMGFK (UniProt Q14141),probe-labelled cysteine peptide fold change,10 µM,-0.223
same,probe-labelled cysteine peptide fold change,50 µM,-0.339
SIRPA_P78324_228_EDVHSQVICEVAHVTLQGDPLR (UniProt P78324),probe-labelled cysteine peptide fold change,10 µM,-0.225
same,probe-labelled cysteine peptide fold change,50 µM,-0.114
SHTN1_A0MZ66_550_KLEGCTSSK (UniProt A0MZ66),probe-labelled cysteine peptide fold change,10 µM,-0.274
same,probe-labelled cysteine peptide fold change,50 µM,-0.399
SETD1B_Q9UPS6_1908_FINHSCNPNCYAK (UniProt Q9UPS6),probe-labelled cysteine peptide fold change,10 µM,0.136
same,probe-labelled cysteine peptide fold change,50 µM,0.0984
SLC25A5_P05141_257_KGTDIMYTGTLDCWR (UniProt P05141),probe-labelled cysteine peptide fold change,10 µM,-0.111
same,probe-labelled cysteine peptide fold change,50 µM,-0.203
SH3GLB1_Q9Y371_304_ECSGSR (UniProt Q9Y371),probe-labelled cysteine peptide fold change,10 µM,-0.299
same,probe-labelled cysteine peptide fold change,50 µM,0.164
SETD2_Q9BYW2_1125_ACPQTDK (UniProt Q9BYW2),probe-labelled cysteine peptide fold change,10 µM,-0.235
same,probe-labelled cysteine peptide fold change,50 µM,-0.561
SERPINB8_P50452_348_FCADHPFLFFIR (UniProt P50452),probe-labelled cysteine peptide fold change,10 µM,-0.213
same,probe-labelled cysteine peptide fold change,50 µM,0.265
SKA3_Q8IX90_20_SLASTLDCETAR (UniProt Q8IX90),probe-labelled cysteine peptide fold change,10 µM,0.0147
same,probe-labelled cysteine peptide fold change,50 µM,0.215
SLC25A13_Q9UJS0_503_DIPFSAIYFPCYAHVK (UniProt Q9UJS0),probe-labelled cysteine peptide fold change,10 µM,0.0164
same,probe-labelled cysteine peptide fold change,50 µM,0.0697
SF3B3_Q15393_340_YFDTVPVAAAMCVLK (UniProt Q15393),probe-labelled cysteine peptide fold change,10 µM,-0.159
same,probe-labelled cysteine peptide fold change,50 µM,0.0584
SHMT2_P34897_91_AALEALGSCLNNK (UniProt P34897),probe-labelled cysteine peptide fold change,10 µM,-0.0984
same,probe-labelled cysteine peptide fold change,50 µM,0.0251
SLC30A1_Q9Y6M5_437_SSVVPCELACR (UniProt Q9Y6M5),probe-labelled cysteine peptide fold change,10 µM,-0.204
same,probe-labelled cysteine peptide fold change,50 µM,-0.404

# Random excerpt: two entries already listed.
target,measurement,setting,value
SHMT1_P34896_248_IADENGAYLMADMAHISGLVAAGVVPSPFEHCHVVTTTTHK (UniProt P34896),probe-labelled cysteine peptide fold change,50 µM,-0.34
SF3B3_Q15393_340_YFDTVPVAAAMCVLK (UniProt Q15393),probe-labelled cysteine peptide fold change,50 µM,0.0584
